Assay results published in article PMC12680731.
These are yes or no findings as the source states them, for the method shown. In cells and extracts the contact can be indirect. Some entries that bind do so weakly or less than the wild type. For some assays here: Sequences can lack the tags named with a protein.

By UniProt entry, the sequences of proteins in these tests, tags left out.
UniProt O89090: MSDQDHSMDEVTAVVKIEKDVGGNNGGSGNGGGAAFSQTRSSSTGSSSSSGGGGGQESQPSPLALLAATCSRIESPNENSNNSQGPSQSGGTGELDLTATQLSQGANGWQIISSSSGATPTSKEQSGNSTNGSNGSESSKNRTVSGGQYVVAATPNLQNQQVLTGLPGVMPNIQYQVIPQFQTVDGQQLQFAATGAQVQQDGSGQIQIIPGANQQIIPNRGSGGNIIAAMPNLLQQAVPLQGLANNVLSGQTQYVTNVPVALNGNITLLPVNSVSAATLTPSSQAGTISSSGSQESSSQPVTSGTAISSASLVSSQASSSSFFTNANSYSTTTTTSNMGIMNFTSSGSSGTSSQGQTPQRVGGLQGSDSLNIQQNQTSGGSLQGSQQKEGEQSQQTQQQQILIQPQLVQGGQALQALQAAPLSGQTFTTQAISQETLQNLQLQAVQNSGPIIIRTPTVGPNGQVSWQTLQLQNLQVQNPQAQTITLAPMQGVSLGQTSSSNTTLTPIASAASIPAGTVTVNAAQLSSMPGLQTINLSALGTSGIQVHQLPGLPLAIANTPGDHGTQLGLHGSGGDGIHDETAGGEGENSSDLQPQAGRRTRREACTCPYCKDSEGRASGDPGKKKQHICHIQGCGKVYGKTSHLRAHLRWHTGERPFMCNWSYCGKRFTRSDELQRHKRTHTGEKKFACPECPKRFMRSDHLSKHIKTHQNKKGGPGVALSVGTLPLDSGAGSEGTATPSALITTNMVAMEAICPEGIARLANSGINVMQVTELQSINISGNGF
UniProt Q63844: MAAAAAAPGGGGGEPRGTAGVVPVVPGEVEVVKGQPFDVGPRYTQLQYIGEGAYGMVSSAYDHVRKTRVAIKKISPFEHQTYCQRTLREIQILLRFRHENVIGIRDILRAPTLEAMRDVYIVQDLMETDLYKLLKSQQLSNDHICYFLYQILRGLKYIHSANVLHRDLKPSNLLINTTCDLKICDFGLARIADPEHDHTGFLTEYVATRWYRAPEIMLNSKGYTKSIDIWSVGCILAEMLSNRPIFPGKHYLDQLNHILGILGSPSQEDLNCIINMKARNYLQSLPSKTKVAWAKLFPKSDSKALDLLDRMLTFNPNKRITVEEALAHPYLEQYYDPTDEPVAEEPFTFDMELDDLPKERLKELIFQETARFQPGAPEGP

Key:
[1] = molecular target: specificity protein 1 (Sp1) (mouse (endogenous in cardiac tissue of wildtype mice)) (UniProt O89090); assay: co-IP; total cardiac protein from wildtype mice; tissue homogenised in lysis buffer (20 mM Tris HCl pH 8, 137 mM NaCl, 1% NP-40, 2 mM EDTA) at 4 °C; immunoprecipitated with anti-Sp1 or anti-SGLT1 primary antibody and protein A agarose beads; immunoprecipitate probed on immunoblots for ERK1
[2] = molecular target: T1, sodium-glucose co-transporter 1 (SGLT1) (mouse (endogenous in cardiac tissue of wildtype mice)) (UniProt Q8C3K6); assay: as above
T1 sequence: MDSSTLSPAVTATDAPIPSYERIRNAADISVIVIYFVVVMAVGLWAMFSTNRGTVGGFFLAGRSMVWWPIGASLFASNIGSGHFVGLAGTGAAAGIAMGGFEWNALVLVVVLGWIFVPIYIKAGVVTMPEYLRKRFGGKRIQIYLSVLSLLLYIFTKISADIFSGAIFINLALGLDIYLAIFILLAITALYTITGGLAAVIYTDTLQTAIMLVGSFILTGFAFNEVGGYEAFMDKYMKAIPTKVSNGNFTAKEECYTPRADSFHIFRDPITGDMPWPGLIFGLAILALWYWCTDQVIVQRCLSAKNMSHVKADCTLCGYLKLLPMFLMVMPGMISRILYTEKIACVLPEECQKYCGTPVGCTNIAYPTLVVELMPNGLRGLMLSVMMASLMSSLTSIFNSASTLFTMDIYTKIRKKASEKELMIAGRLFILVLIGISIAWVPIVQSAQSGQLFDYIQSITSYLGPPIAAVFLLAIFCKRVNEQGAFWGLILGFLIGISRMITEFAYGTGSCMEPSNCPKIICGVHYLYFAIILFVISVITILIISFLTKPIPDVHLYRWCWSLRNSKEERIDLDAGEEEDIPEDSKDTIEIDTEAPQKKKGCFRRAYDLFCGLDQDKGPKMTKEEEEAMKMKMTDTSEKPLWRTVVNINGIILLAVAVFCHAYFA

How did the binding [1] turn out when “ERK1 (from UniProt Q63844 1-380) (enzyme)” was run?
The binding was “binds”.

What about the binding [2] of the same substance?
The binding was “binds”.
